These are yes or no findings as the source states them, for the method shown. Binding seen in cells or lysates may run through a third protein. These calls come from enrichment with a bait or labelling near it, and not all partners need be listed.
Columns and labels:
Experiment in all cases: affinity purification with mass spectrometry; GFP-tagged C2H2-ZF proteins as baits in inducible HEK293 cell lines, harvested 24 h after doxycycline; two biological replicates; SAINTexpress AvgP cutoff of 1
ZNF273 (human) = ZNF273 (human) (UniProt Q14593)
ZFP28 (human) = ZFP28 (human) (UniProt Q8NHY6)
ZNF677 (human) = ZNF677 (human) (UniProt Q86XU0)

Sequences of proteins named here, by UniProt entry; tags and fusion partners are left off.
UniProt Q14593: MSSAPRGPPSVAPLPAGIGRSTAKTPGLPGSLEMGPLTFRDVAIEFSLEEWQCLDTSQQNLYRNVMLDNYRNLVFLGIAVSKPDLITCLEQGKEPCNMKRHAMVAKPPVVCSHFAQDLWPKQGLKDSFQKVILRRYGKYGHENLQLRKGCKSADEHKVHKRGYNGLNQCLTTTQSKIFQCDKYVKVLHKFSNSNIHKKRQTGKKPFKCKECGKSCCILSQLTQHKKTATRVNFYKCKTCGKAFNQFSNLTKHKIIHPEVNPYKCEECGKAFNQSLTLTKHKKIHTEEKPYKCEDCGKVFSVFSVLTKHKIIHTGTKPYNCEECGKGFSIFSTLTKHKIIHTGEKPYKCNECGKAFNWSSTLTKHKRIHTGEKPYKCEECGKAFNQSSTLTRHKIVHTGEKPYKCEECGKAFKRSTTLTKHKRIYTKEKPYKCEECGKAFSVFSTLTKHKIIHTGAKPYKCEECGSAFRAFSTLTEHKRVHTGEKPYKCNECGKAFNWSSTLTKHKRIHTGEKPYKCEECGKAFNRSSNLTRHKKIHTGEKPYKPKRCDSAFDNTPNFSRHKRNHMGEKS
UniProt Q8NHY6: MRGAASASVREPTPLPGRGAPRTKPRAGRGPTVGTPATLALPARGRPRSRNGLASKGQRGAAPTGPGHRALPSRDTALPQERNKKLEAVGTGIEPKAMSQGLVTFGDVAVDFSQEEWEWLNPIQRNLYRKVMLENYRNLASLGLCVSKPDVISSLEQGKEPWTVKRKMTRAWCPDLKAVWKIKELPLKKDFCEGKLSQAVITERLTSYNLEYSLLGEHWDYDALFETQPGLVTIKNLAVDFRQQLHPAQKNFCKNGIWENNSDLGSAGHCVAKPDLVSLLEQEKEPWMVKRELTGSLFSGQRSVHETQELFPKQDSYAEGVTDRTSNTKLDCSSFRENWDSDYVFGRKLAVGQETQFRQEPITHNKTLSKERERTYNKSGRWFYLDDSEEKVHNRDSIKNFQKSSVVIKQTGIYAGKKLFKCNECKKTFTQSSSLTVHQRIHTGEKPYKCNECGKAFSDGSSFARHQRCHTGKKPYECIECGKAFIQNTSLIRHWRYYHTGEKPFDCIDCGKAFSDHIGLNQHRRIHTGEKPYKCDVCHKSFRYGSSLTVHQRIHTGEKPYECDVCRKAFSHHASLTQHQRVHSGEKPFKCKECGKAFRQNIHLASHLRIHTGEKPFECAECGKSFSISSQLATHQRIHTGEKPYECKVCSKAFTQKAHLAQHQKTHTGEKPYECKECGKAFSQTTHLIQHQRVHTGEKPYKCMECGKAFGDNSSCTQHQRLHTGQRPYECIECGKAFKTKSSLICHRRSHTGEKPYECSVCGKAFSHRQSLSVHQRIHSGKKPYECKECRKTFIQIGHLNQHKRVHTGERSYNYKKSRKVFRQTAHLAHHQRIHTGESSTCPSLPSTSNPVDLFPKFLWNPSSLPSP
UniProt Q86XU0: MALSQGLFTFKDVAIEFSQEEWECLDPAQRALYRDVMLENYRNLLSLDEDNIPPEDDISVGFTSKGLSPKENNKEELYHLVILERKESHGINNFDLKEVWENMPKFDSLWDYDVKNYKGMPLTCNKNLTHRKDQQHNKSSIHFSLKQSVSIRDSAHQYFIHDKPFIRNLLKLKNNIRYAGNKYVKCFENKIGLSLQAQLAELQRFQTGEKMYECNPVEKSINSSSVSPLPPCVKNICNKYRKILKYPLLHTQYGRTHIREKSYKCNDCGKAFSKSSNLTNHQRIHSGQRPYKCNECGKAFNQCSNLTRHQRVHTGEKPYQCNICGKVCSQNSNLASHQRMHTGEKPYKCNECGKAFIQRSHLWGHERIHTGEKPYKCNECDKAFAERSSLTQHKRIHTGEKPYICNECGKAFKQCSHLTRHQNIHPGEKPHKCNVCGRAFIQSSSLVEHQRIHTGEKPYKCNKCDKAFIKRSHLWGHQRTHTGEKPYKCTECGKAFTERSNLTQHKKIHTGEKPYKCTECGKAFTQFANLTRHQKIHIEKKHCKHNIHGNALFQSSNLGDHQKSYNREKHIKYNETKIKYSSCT
UniProt Q12888: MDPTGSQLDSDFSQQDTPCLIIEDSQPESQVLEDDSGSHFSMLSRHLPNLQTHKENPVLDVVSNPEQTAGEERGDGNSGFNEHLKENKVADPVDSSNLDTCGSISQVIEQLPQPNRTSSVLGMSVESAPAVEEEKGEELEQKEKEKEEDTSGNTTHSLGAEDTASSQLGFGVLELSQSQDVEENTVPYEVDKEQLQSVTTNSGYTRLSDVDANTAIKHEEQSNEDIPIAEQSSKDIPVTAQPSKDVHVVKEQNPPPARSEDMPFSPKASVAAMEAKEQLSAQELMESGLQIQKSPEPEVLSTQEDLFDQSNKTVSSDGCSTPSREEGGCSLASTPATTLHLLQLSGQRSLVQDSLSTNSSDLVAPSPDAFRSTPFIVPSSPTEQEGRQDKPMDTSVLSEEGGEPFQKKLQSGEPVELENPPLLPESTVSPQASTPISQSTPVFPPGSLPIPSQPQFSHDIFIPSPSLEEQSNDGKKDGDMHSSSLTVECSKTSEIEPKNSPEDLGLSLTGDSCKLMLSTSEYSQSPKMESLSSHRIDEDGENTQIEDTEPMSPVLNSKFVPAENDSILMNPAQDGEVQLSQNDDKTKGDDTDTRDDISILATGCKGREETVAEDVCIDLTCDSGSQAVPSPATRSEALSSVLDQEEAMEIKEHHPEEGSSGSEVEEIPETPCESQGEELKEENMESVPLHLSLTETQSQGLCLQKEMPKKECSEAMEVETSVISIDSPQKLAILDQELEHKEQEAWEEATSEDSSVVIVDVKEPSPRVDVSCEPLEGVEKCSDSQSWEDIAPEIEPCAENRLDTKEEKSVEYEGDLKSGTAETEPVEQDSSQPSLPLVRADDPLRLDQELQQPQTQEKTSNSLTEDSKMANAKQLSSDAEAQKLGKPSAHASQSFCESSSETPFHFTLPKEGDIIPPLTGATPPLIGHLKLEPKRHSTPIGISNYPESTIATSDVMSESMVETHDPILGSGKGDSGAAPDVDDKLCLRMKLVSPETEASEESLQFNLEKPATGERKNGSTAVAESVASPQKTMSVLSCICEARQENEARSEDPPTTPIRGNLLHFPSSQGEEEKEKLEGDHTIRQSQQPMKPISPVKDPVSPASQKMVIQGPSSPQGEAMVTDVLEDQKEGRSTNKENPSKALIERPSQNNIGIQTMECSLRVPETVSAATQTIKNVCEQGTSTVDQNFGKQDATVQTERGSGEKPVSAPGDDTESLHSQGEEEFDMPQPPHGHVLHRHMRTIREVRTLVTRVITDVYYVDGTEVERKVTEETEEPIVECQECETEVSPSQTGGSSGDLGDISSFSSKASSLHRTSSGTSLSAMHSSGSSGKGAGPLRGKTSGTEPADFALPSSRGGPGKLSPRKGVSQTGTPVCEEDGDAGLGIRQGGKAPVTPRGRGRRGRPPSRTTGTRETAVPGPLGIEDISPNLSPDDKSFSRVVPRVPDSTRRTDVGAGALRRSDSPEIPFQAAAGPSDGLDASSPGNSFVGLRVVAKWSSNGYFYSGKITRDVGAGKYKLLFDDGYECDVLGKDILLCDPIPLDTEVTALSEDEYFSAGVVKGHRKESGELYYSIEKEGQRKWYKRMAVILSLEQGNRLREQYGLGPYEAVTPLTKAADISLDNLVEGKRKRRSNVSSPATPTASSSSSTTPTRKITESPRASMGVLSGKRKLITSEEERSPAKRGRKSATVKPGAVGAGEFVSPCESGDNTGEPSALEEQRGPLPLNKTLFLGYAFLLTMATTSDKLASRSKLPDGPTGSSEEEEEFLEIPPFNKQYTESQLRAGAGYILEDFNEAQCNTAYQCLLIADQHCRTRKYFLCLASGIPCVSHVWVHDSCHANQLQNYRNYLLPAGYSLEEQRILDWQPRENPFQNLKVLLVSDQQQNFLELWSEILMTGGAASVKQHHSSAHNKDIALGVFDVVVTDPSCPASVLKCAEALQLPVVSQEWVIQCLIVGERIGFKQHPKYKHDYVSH

Measured: binding

TP53BP1 (from UniProt Q12888 1-1972)
binds: all assays above
